Here are results for 53 compounds from the supplement of paper PMC3682954.

The structures appear in SMILES notation. Where “and” joins values, the source holds several entries; their conditions need not be identical. Equal values may be shown once. Where a name gives a salt, the structure may show the parent alone. ± gives the standard deviation of the averaged measurements. The list shows a part of the results. Most values come without repeats; read them as rough.

For the experiment, the system named is RAW 264.7. In words: cell viability (MTT) relative to vehicle control; higher = more viable cells. The following applies: stimulus: HMGB1 5 ug/ml, 18 h.
Where [1] appears, read: compound concentration: 1 ug/ml.

As a reminder, the cell viability is a read-out of living cells in per cent, often relative to untreated cells.

Take `CC(C)(C)NC[C@H](O)c1ccc(O)c(CO)c1`: the cell viability (compound concentration: 3 uM) was 108%.

Consider `CC(C)Nc1ncccn1`, for which the cell viability (compound concentration: 3 uM) worked out at 112%. On the same count and under the same terms, the value for `Cc1cc2c(cc1Cl)N(C(=O)Nc1cccc3ncccc13)CC2` was 116%. The same measure, in the same setting: under `CCn1cc(C(=O)O)c(=O)c2cnc(N3CCCC3)nc21` stands 107%; under `CCn1cc(C(=O)O)c(=O)c2cnc(N3CCCC3)nc21` [Piromidic acid], 102%; under `O=S(=O)(O)CCS` [Mesna], 94.7%. Same read-out and setting: under `O=S(=O)(O)CCS` stands 102%. Take `CCCCCCCCCCCCC[N+](C)(C)Cc1ccccc1`: where the note is “compound concentration: 3 uM”, the cell viability turned out to be 62.6 ± 22%. Still for that read-out and setting: under `CCCCCCCCCCC/C=C\C(C)(C)/C=C\CCCC(=O)O` [7,7-Dimethyl-(5Z,8Z)-eicosadienoic acid] stands 96.7%; under `CCOc1ccccc1OCCN[C@H](C)Cc1ccc(OC)c(S(N)(=O)=O)c1` [Tamsulosin], 96.5%.

For `CCN1CCCC1CN=Cc1c(O)c(O)c(C(C)C)c2cc(C)c(-c3c(C)cc4c(C(C)C)c(O)c(O)c(C=NCC5CCCN5CC)c4c3O)c(O)c12` (stereo not drawn), under setting [1], the cell viability was 99.8%. Take `CC(C)NCC(O)COc1cccc2ccccc12` (stereo not drawn) [Propranolol]: the cell viability (compound concentration: 3 uM) came out at 88.6%. With `COc1ccc2cc([C@@H](C)C(=O)O)ccc2c1` [(R) -Naproxen sodium salt], the cell viability (compound concentration: 3 uM) was 149%.

`Nc1nc(=O)c2c([nH]1)NC[C@@H](CNc1ccc(C(=O)N[C@@H](CCC(=O)O)C(=O)O)cc1)N2C=O` [Folinic acid calcium salt]: the cell viability (compound concentration: 3 uM) was determined as 116%. On to `Oc1c2ccccc2c2c3c(cccc13)N=N2`, for which the cell viability (compound concentration: 3 uM) is 97%. The same measure, in the same setting: under `C[C@]12C=CC(=O)C=C1CC[C@@H]1[C@@H]2[C@@H](O)C[C@@]2(C)[C@H]1CC[C@]2(O)C(=O)COC(=O)CCC(=O)O` stands 116% and 100%.

With `C=C(C)[C@@H]1CC=C(C(=O)O)CC1` [(S)-(-)-Perillic acid], under setting [1], the cell viability was determined as 97.8%.

With `C=C(C)[C@@H]1CC=C(C(=O)O)CC1`, for the setting “compound concentration: 3 uM”, the cell viability was 95.9%. Same read-out and setting: under `C=C(C)[C@@H]1CC=C(C(=O)O)CC1` [(-)-Perillic acid] stands 106%; under `COC(=O)[C@@H]1[C@H]2C[C@H]3c4[nH]c5ccccc5c4CCN3C[C@@H]2CC[C@@H]1O`, 101%. Still for that read-out and setting: the value for `COC(=O)[C@@H]1[C@H]2C[C@H]3c4[nH]c5ccccc5c4CCN3C[C@@H]2CC[C@@H]1O` [Yohimbine HCl] was 101%; that for `COC(=O)[C@@H]1[C@H]2C[C@H]3c4[nH]c5ccccc5c4CCN3C[C@@H]2CC[C@@H]1O` [Yohimbine hydrochloride] was 108 ± 2.7%. Regarding `CCCCC(CC)CNC(=N)NC(=N)NCCCCCCNC(=N)NC(=N)NCC(CC)CCCC` (stereo not drawn) [Alexidine dihydrochloride], the cell viability (compound concentration: 3 uM) amounted to 35.3%.

In the case of `CCCCCCc1ccc(O)cc1O`, under “compound concentration: 3 uM”, the cell viability came out at 96.3%. On the same count and under the same terms, the value for `CC1(C)NC(=O)N(c2ccc([N+](=O)[O-])c(C(F)(F)F)c2)C1=O` [Nilutamide] was 98.6 ± 13%; that for `CC1(C)NC(=O)N(c2ccc([N+](=O)[O-])c(C(F)(F)F)c2)C1=O` was 108%; that for `CC(C)C[C@H](NC(=O)[C@H]1O[C@@H]1C(=O)O)C(=O)NCCCCN=C(N)N` was 94.9%. As for `CCC1=C(C)CN(C(=O)NCCc2ccc(S(=O)(=O)NC(=O)N[C@H]3CC[C@H](C)CC3)cc2)C1=O`, the cell viability (compound concentration: 3 uM) was 96.4%. For `CCC1=C(C)CN(C(=O)NCCc2ccc(S(=O)(=O)NC(=O)N[C@H]3CC[C@H](C)CC3)cc2)C1=O` [Glimepiride], the cell viability (compound concentration: 3 uM) amounted to 105 ± 4.5%. Same read-out and setting: the value for `O=P(O)(O)C(Cl)(Cl)P(=O)(O)O` [Clodronic acid] was 103%; that for `O=P(O)(O)C(Cl)(Cl)P(=O)(O)O` [Clodronate] was 115 ± 12%.

In the case of `CC[C@H]1OC(=O)[C@H](C)C(=O)[C@H](C)[C@@H](O[C@@H]2O[C@H](C)C[C@H](N(C)C)[C@H]2O)[C@](C)(OC)C[C@@H](C)C(=O)[C@H](C)[C@H]2N(CCCCn3cnc(-c4cccnc4)c3)C(=O)O[C@]12C`, the cell viability (compound concentration: 3 uM) came out at 104 ± 2.3%. As for `O=C(O)[C@H]1C[C@H](C(=O)O)N1` (relative stereo) [trans-Azetidine-2,4-dicarboxylic acid], the cell viability (compound concentration: 3 uM) was found to be 110%. Take `CCCCOc1cc(C(=O)NCCN(CC)CC)c2ccccc2n1` [Dibucaine]: the cell viability (compound concentration: 3 uM) turned out to be 111%. Take `CCCCOc1cc(C(=O)NCCN(CC)CC)c2ccccc2n1`: the cell viability (compound concentration: 3 uM) is 94.9%.

`COc1cc(OC)c2c(c1)OC(c1ccccc1)CC2=O` (stereo not drawn) [5,7-Dimethoxyflavanone]: the cell viability under setting [1] amounted to 93.3%. As for `CCS(=O)(=O)CCn1c([N+](=O)[O-])cnc1C` [Tinidazole], the cell viability (compound concentration: 3 uM) is 120 ± 16%. The same measure, in the same setting: under `CCS(=O)(=O)CCn1c([N+](=O)[O-])cnc1C` stands 103 ± 1.8%. As to `O=C1CCc2cc(OCCCCc3nnnn3C3CCCCC3)ccc2N1`, under “compound concentration: 3 uM”, the cell viability was 104%. For the compound `O=C1CCc2cc(OCCCCc3nnnn3C3CCCCC3)ccc2N1` [Cilostazol], under “compound concentration: 3 uM”, the cell viability came out at 97.1 ± 16%.

Consider `COc1ccc2cc1Oc1ccc(cc1)C[C@H]1c3cc(c(OC)cc3CCN1C)Oc1c(OC)c(OC)cc3c1[C@H](C2)N(C)CC3`, for which the cell viability (compound concentration: 3 uM) was determined as 116%.

`COc1ccc2cc1Oc1ccc(cc1)C[C@H]1c3cc(c(OC)cc3CCN1C)Oc1c(OC)c(OC)cc3c1[C@H](C2)N(C)CC3` [(S,S)-(+)-Tetrandrine]: the cell viability under setting [1] was 98.4%. `CCCCn1c(=O)c2c(ncn2CC(C)=O)n(CCCC)c1=O` [Denbufylline]: the cell viability (compound concentration: 3 uM) came out at 109%.

As to `C[C@]12CC[C@@H]3c4ccc(O)cc4CC[C@H]3[C@@H]1CCC2=O` [Estrone], the cell viability (compound concentration: 3 uM) was found to be 100 ± 9.5%.

Consider `C[C@]12CC[C@@H]3c4ccc(O)cc4CC[C@H]3[C@@H]1CCC2=O`, for which the cell viability (compound concentration: 3 uM) worked out at 109%. Still for that read-out and setting: under `COc1cc(C(=O)NC2CCCNC2)cc(OC)c1OC` (stereo not drawn) stands 87.8%; under `CC(=O)OCC1=C(C(=O)O)N2C(=O)[C@@H](NC(=O)CSc3ccncc3)[C@H]2SC1`, 109%.

As for `CC(=O)OCC1=C(C(=O)O)N2C(=O)[C@@H](NC(=O)CSc3ccncc3)[C@H]2SC1` [Cephapirin sodium salt], under setting [1], the cell viability was determined as 106%. With `CC(=O)N(CC(C)C(=O)O)c1c(I)cc(I)c(N)c1I` (stereo not drawn) [Iocetamic acid], under “compound concentration: 3 uM”, the cell viability was found to be 86.9%.

Regarding `O=C1OC2(c3ccc(O)cc3Oc3cc(O)ccc32)c2ccccc21`, the cell viability (compound concentration: 3 uM) worked out at 105%. For the compound `COc1ccccc1-c1cc(=O)c2cc(O)ccc2o1`, the cell viability under setting [1] came to 102%. `CN(C)[C@@H]1C(O)=C(C(N)=O)C(=O)[C@@]2(O)C(O)=C3C(=O)c4c(O)ccc(Cl)c4[C@@](C)(O)[C@H]3C[C@@H]12`: under “compound concentration: 3 uM”, the cell viability is 106 ± 1.6%. With `CN(C)[C@@H]1C(O)=C(C(N)=O)C(=O)[C@@]2(O)C(O)=C3C(=O)c4c(O)ccc(Cl)c4[C@@](C)(O)[C@H]3C[C@@H]12` [Chlortetracycline hydrochloride], under “compound concentration: 3 uM”, the cell viability was determined as 99.4%.
